Results as given in PMC9630792.
Results are given in words; binding and its absence hold for the method and conditions named. Binding seen in cells or lysates may run through a third protein. Some binding calls cover weakened binding; strength is not graded here. Sequences can lack the tags named with a protein.

Sequences of proteins named here, by UniProt entry; tags and fusion partners are left off. A change or cut given only in a name is not applied to a line headed by its entry. A line that says so, or that is headed by a name, gives the form on record, which may keep a tag or linker. Residues count along the entry.
UniProt P06104: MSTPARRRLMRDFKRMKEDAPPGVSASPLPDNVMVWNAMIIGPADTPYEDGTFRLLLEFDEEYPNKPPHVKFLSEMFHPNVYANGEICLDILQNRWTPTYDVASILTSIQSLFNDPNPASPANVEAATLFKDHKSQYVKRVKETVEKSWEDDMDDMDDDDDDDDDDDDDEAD
His6-Rad6 (amino acids 1-150) (S. cerevisiae (budding yeast)): residues 1-150 of P06104
His6-rad6-A126F (amino acids 1-150) (S. cerevisiae (budding yeast)) (P06104, form named): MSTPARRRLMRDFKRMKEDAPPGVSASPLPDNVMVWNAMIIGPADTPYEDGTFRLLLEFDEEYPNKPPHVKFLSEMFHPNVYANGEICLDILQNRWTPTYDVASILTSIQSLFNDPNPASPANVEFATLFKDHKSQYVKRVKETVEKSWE
His6-rad6-A126T (amino acids 1-150) (S. cerevisiae (budding yeast)) (P06104, form named): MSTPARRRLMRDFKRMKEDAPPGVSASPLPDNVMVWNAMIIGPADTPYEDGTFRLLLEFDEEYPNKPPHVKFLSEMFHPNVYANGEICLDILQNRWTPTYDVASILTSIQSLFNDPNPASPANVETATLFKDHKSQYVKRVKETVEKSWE
UniProt Q07963: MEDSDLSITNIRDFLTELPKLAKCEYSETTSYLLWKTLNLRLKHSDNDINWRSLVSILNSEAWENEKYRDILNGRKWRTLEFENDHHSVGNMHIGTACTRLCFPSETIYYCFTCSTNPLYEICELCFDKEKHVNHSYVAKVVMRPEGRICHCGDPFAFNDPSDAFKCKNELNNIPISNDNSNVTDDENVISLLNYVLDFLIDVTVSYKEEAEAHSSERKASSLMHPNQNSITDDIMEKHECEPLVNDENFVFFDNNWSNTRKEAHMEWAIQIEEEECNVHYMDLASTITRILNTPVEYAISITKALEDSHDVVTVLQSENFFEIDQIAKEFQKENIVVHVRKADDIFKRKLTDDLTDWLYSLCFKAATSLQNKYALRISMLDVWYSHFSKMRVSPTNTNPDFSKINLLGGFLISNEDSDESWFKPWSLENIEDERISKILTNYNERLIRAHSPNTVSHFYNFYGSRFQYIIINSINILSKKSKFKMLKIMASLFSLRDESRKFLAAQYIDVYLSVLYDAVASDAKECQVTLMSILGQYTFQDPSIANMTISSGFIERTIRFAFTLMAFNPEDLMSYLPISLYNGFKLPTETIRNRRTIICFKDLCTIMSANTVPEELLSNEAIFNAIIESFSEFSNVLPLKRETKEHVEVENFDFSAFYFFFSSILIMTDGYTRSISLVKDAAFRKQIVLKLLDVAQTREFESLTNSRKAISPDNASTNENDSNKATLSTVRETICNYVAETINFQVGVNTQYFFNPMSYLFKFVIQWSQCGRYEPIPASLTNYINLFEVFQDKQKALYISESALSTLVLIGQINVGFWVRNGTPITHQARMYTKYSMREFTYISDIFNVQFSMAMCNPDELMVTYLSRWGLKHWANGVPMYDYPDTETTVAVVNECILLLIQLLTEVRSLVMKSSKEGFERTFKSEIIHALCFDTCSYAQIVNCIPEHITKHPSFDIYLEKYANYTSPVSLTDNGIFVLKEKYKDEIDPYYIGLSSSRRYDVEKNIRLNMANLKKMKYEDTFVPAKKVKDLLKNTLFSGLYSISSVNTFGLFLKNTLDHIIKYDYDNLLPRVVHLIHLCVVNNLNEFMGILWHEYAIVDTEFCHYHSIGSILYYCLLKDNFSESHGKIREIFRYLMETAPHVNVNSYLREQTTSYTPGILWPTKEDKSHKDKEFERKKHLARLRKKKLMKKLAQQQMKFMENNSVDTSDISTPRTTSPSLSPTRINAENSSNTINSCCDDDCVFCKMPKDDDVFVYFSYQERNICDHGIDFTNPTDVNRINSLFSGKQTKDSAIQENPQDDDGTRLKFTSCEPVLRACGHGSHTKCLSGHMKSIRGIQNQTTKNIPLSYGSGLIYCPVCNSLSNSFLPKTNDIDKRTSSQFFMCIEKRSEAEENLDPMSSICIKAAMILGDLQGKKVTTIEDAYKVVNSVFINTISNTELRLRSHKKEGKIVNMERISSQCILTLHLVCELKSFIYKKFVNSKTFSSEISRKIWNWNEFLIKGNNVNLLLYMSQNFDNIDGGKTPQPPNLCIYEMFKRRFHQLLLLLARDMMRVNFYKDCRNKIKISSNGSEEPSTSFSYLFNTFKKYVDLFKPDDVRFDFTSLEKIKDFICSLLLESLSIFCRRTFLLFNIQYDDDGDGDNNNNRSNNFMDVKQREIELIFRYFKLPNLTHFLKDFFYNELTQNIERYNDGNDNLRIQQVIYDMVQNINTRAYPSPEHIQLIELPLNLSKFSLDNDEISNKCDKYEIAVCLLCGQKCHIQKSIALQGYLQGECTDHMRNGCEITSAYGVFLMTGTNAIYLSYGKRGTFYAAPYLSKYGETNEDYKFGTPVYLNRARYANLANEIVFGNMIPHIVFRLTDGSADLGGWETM

Key:
[1] = biological target: Flag epitope-tagged WT Rad6 (S. cerevisiae (budding yeast)) (UniProt P06104); assay: co-IP; yeast lysate (1 mg) with anti-Flag M2 magnetic beads, 4 h at 4 °C in 10 mM Tris.Cl pH 8.0, 100 mM NaCl, 10% glycerol, 0.1% NP-40; immunoblotting
[2] = biological target: Flag epitope-tagged rad6-A126F (S. cerevisiae (budding yeast)) (UniProt P06104); assay: as above
[3] = biological target: Flag epitope-tagged rad6-A126T (S. cerevisiae (budding yeast)) (UniProt P06104); assay: as above
[4] = biological target: His6-Rad6 (amino acids 1-150) (S. cerevisiae (budding yeast)) (UniProt P06104); assay: pull-down; metal affinity copurification: His6-tagged WT or mutant Rad6 coexpressed with Bre1R6BR or Rad18R6BR in E. coli; clarified lysate bound to TALON SuperFlow resin 2 h at 4 °C in 25 mM Tris.Cl pH 7.9, 150 mM NaCl, 20 mM imidazole, 0.1% Triton X-100; SDS-PAGE and Coomassie-type staining
[5] = biological target: His6-rad6-A126F (amino acids 1-150) (S. cerevisiae (budding yeast)) (UniProt P06104); assay: as above
[6] = biological target: His6-rad6-A126T (amino acids 1-150) (S. cerevisiae (budding yeast)) (UniProt P06104); assay: as above

Molecule	binding [1]	binding [2]	binding [3]	binding [4]	binding [5]	binding [6]
6HA-tagged Ubr2 (from UniProt Q07963 1-1872) (enzyme)	binds	binds	binds	–	–	–
9Myc-tagged Rad18 (enzyme, UniProt P10862 1-487) MDHQITTASDFTTTSIPSLYQLDTLLRCHICKDFLKVPVLTPCGHTFCSLCIRTHLNNQPNCPLCLFEFRESLLRSEFLVSEIIQSYTSLRSSLLDALRIPKPTPVPENEEVPGPENSSWIELISESESDSVNAADDDLQIVATSERKLAKRSMTDILPLSSKPSKRNFAMFRSERIKKKSKPNEQMAQCPICQQFYPLKALEKTHLDECLTLQSLGKKPKISTTFPTESNPHNKSSSRFKVRTPEVDKSSCGETSHVDKYLNSMMSAEHQRLPKINFTSMTQSQIKQKLSSLGLSTNGTRQNMIKRYNHYEMLWNSNFCDSLEPVDEAELKRQLLSWDVSHNKTPQNSSNKGGISKLMIMKSNGKSSSYRKLLENFKNDKFNRKGWMVMFRKDFARLIREAKMKIKTGSSDSSGSVGHSNDGDGVEKVQSDQGTEDQQMEKDQDTVINEDRVAGERNLPNEDSTDADLSRELMDLNEYSKDPPGNN	binds	binds	binds	–	–	–

The remaining lines, values ahead:

binding [1]	binding [2]	binding [3]	binding [4]	binding [5]	binding [6]	Molecule
–	–	–	binds	binds	binds	GST-tagged Rad18 Rad6-binding region (R6BR) (amino acids 301-487) (domain or fragment, UniProt P10862 301-487) RQNMIKRYNHYEMLWNSNFCDSLEPVDEAELKRQLLSWDVSHNKTPQNSSNKGGISKLMIMKSNGKSSSYRKLLENFKNDKFNRKGWMVMFRKDFARLIREAKMKIKTGSSDSSGSVGHSNDGDGVEKVQSDQGTEDQQMEKDQDTVINEDRVAGERNLPNEDSTDADLSRELMDLNEYSKDPPGNN
binds	binds	binds	–	–	–	Bre1 (enzyme, UniProt Q07457 1-700) MTAEPATKKIKLELSDPSEPLTQSDVIAFQKEALFRCINRRRVDFEALRKQYELSRRECIDVSRKLANIMALIVTLARFIETFCTDANEKQLCREIAQGDETLIVQRSDSFMKLLTKYGKPNTTDSNTNSNASDHIQELTTELKNLRKSKEELFYENSQLTEEISALKEYYTNIIRKYDRDESFTIKRVFKEDKTDAVKELREDEKESNENNIKSGNKDSSAINGDNTSKKSEKGDELVQAEDERKEDAENEKLELDLKFSDLRAEINSLSSTIKDLENIRRENEEELIKTRSEVSNLKKQQIAAADQDPDFKSYDHESLLAKIQHLTEQNAELSEINSSFLSKFQVLAKEKEIYTKKVREEFQKSLDSLVEMNSSLEKDVVRIRTARDDLLSKIAILEAEKSKTEVLSDLQHAIDILKEQWTKIDQRSNDTKSSSTQDALIKEIQDLEKGFRELSDLTHKKYSEIINHESVISKLTVEKTKADQKYFAAMRSKDSILIEIKTLSKSLSKSNELILQLKDSDRLLQQKIGNLHKQLDLSQNNERRLIDSSKTETLKIIDLNNTSTKLKRSLEKLQEESNKSIADMTHLETKLNDTEIELKHFKQKASHLESKCEKLHDTLFRGNNKNKGSSDEALVEELANFRTLVYCSLCSKNWKNMAIKTCGHVFCENCCKERLAARMRKCPTCNKAFSSNDLLTVHL
–	–	–	binds	binds	binds	Bre1 Rad6-binding region (R6BR) (amino acids 1-214) (domain or fragment, UniProt Q07457 1-214) MTAEPATKKIKLELSDPSEPLTQSDVIAFQKEALFRCINRRRVDFEALRKQYELSRRECIDVSRKLANIMALIVTLARFIETFCTDANEKQLCREIAQGDETLIVQRSDSFMKLLTKYGKPNTTDSNTNSNASDHIQELTTELKNLRKSKEELFYENSQLTEEISALKEYYTNIIRKYDRDESFTIKRVFKEDKTDAVKELREDEKESNENNIK
